Reference: PMC5127842
Results are given in words; binding and its absence hold for the method and conditions named. In cells and extracts the contact can be indirect. Some entries that bind do so weakly or less than the wild type.

By UniProt entry, the sequences of proteins in these tests, tags left out.
UniProt Q8BQP9: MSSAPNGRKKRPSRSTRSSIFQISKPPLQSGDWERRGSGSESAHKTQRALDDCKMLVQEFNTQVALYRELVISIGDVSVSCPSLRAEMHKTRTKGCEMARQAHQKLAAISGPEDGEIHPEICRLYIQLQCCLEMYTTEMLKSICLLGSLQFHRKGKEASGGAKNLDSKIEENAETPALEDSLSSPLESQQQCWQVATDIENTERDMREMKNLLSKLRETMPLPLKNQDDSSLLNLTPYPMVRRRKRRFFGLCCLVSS

Experiments:
[1] = target: T1, Regulator of G-protein signaling 7 (RGS7) (mouse (endogenous in cerebellum)) (UniProt O54829); test: co-IP; mouse cerebellum lysate cleared at 14,000 x g; 2 μg rabbit anti-RGS7 NT or sheep anti-R7BP NT with Protein G beads, 4°C, 1 h; three washes with immunoprecipitation buffer (300 mM NaCl, 50 mM Tris-HCl pH 7.4, 1% Triton X-100); lysates of RGS7-/- or R7BP-/- mice as negative controls; detection by western blot
T1 sequence: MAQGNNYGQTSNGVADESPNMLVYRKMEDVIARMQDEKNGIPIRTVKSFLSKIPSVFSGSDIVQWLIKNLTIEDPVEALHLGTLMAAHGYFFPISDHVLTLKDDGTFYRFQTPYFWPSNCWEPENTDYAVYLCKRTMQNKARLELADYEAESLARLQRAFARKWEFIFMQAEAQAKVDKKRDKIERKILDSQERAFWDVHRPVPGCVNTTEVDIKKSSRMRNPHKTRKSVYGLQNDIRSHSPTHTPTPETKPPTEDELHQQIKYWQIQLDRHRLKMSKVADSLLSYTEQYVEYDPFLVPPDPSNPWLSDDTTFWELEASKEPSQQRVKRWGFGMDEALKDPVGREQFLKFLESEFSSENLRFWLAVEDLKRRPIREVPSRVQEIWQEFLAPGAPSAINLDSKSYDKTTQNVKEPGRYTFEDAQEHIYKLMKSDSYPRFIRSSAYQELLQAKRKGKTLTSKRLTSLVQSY

[2] = target: R7 binding protein (R7BP) (mouse (endogenous in cerebellum)) (UniProt Q8BQP9); test: as above

## R7 binding protein (R7BP) (from UniProt Q8BQP9 1-257)
[1]
  binding: binds

B1: Regulator of G-protein signaling 7 (RGS7) (protein, UniProt O54829 1-469)
chain: T1 sequence
[2]
  binding: binds
